## Library screening results

Data taken from ChEMBL document CHEMBL3988442, “University of Dundee, Small-Polar-MMV Screening Library” (2021).

Mtb growth Cornell: 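Whole-cell assay for inhibitors of Mycobacterium tuberculosis growth, labelled Cornell in the record; the read-out is not stated. The concentration is filed as 10 mM, unlikely as a test dose, so the dose is not known. Higher means stronger inhibition (inferred from two other growth screens of the library). About 53,000 compounds were tested under these conditions; 1.7% (about 900) showed 50% or more at least once.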
Mtb heat-shock: 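Assay on Mycobacterium tuberculosis, filed only as a heat shock assay from Cornell; the read-out is not stated. The concentration is filed as 10 mM, unlikely as a test dose, so the dose is not known. Direction is inferred from retests: higher values go with stronger inhibition. Of about 69,000 compounds tested this way, about 930 (1.4%) reached 50% or more in at least one test.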

The filed quantity is “Percent Effect” (%).
The controls that fix the scale are not given in the record; negative values are as filed.
The compounds are a random part of those screened.
A dash means the value is not listed here; it may have been measured.

structure,Mtb growth Cornell,Mtb heat-shock
Cc1cccc(C2(NCCCS(C)(=O)=O)CCCC2)c1,-,1.77%
CCC(NC(=O)NCc1ccoc1C)c1c(C)nn(C)c1C (centres undefined),-0.1748%,-6.263%
Cc1cnc(CCN(C)C(=O)c2ccc(O)nc2C)s1,5.206%,-2.973%
O=C1CCC2(CCCN(Cc3nnc(C4CC4)o3)C2)CN1CCO (centres undefined),-,-9.375%
Cc1cccc(NC(=O)Cn2nc3ccccn3c2=O)c1C,-,9.296%
Cc1ccc(SC2CCCC2)c(C(=O)NCCc2n[nH]c(=O)[nH]2)c1,11.48%,7.667%
O=C(CC1CCCC1)N1CCCC(c2n[nH]c3nccnc23)C1 (centres undefined),15.01%,-7.783%
CNC(=O)N1CCCCC1CCNS(C)(=O)=O (centres undefined),-,6.908%
COc1ccc(S(=O)(=O)NCCCc2ccc(N(C)C)cc2)cc1Cl,-4.008%,23.28%
COCCN1CCCN(C(=O)NC(C)Cn2cccn2)CC1 (centres undefined),7.994%,7.323%
O=C1CNc2ncnc(Nc3cnn(Cc4ccccc4)c3)c2N1,-19.24%,-14.79%
CC(SCC(=O)N(C)CC(=O)NC1CC1)c1cc(F)ccc1F (centres undefined),-24.27%,-10.21%
Cc1c[nH]nc1C1CCN(C(=O)C2CCOCC2)C1 (centres undefined),-27.48%,-36.73%
COc1ccccc1C1CCCN1CC(=O)N1CCC(C(N)=O)CC1 (centres undefined),-14.61%,10.39%
CN1CC(=O)N(c2cccc(F)c2)CC12CCN(Cc1ccncc1)C2.O=C(O)C(F)(F)F.O=C(O)C(F)(F)F (centres undefined),-6.107%,-0.5341%
COC(C)c1noc(CN(C)c2ncccn2)n1 (centres undefined),-,-4.065%
O=C(c1cc[nH]n1)N(Cc1ccc(F)cc1)CC1CC1,23.49%,-4.223%
Cc1nn(C)c(Cl)c1C1CCCN1C(=O)c1ccc2c(c1)OCO2 (centres undefined),3.932%,13.44%
CC(CO)(CO)NC(=O)C1CCC(=O)N(Cc2ccc(Cl)cc2)C1 (centres undefined),12.54%,-11.12%
NC(=O)c1cc(C2CCCN(CCOc3ccc(F)cc3)C2)n[nH]1 (centres undefined),-,8.798%
Cc1c(Cl)cccc1NC(=O)Cn1cc(C(=O)O)ccc1=O,6.291%,25.3%
Cc1ccc(N2CCC(NC(C)c3ccc(C)o3)CC2)nc1 (centres undefined),9.933%,-21.99%
Cc1nc(CC(=O)N2CCc3nc(-c4cnccn4)nc(O)c3C2)cs1,-37.25%,-15.97%
[H][C@@]12CCN(c3cc(OC)ncn3)CC[C@@]1([H])N(CC1CC1)CCO2,-7.813%,32.78%
CCc1ncnc2c1CCN(CC(=O)N(C)C)CC2.O=C(O)C(F)(F)F,8.942%,-2.001%
CNC(=O)NCC(=O)N(C)C(c1ccc(Cl)cc1)c1cccnc1 (centres undefined),-25.05%,-9.608%
CCN(CC)Cc1ccc(C(=O)NC2CCc3ccccc32)o1 (centres undefined),13.12%,20.65%
O=c1[nH]nc2n1CCN(S(=O)(=O)c1ccccc1Cl)C2,-31.3%,-33.4%
Cc1cc(C)c(C(=O)NC2CCCc3nc(N(C)C)ncc32)cc1C (centres undefined),2.444%,-0.9066%
COCC1CN(C(=O)Nc2cc(-n3cccc3)ccc2F)CCO1 (centres undefined),-2.61%,0.5243%
NS(=O)(=O)NCc1cc(-c2ccc(C(F)(F)F)cc2)n[nH]1,1.674%,2.325%
O=C(NCCC1CCN(CC(F)(F)F)CC1)C1CCCO1 (centres undefined),13.94%,22.04%
CNS(=O)(=O)CCCn1nnc(-c2ccc(F)c(C)c2)n1,-7.204%,6.802%
CNC(=O)NC(=O)C(NCc1ccccc1)c1ccccc1 (centres undefined),-0.01553%,-5.31%
CCc1cnc(CCNC(C)CC(=O)Nc2cccc(C)c2C)s1 (centres undefined),-,10.12%
CC(NCc1ccc(OCC(N)=O)cc1)c1ccc2c(c1)CCCC2 (centres undefined),31.83%,-12.24%
[H][C@@]12CCCO[C@]1([H])[C@H](N(CC)CC)CN2S(=O)(=O)c1cn(C)cn1,9.722%,0.9764%
Cc1ccc2c(c1)c(C)cc(=O)n2CC(=O)O,-29.24%,-4.406%
COC(=O)c1cc2n(n1)CCCN(C(=O)Cc1c[nH]c3ccccc13)C2,-2.404%,-2.59%
Cc1cc(CN(CC(N)=O)CC(C)C)on1,-,-144.6%
O=C(CC1Cn2ncnc2NC1=O)Nc1cccc(C(F)(F)F)c1 (centres undefined),-,15.78%
CN1CCN(c2ncc3c(=O)n(-c4cccc(F)c4)c(=O)[nH]c3n2)CC1,5%,5.549%
Cc1ccc(OCC2CCCN(Cc3ccc(CO)o3)C2)cc1 (centres undefined),10.24%,-17.5%
Cn1cncc1CN1CCC2(CCCN2c2ncccn2)CC1.O=C(O)C(F)(F)F,10.35%,-8.558%
CS(=O)(=O)N1Cc2ccnn2CC(C(=O)NCc2cccnc2)C1.O=C(O)C(F)(F)F.O=C(O)C(F)(F)F (centres undefined),-34.93%,17.23%
Cc1cc(C2CCCN(CCC(=O)N3CCc4ccccc43)C2)n[nH]1 (centres undefined),7.336%,-20.82%
O=C(NC[C@H]1CCCN1)c1cc(COc2cccc(C(F)(F)F)c2)[nH]n1,-26.02%,-11.34%
NC(=O)CN(CC1CCOC1)C1CC1 (centres undefined),-23.82%,19.55%
O=C(CCC(=O)N1CCc2ccccc2C1)c1cccs1,23.98%,-28.44%
NC(=O)c1c[nH]nc1NC(=O)c1cccc(Cl)c1,13.01%,-11.04%
COc1ccc2cccc(CC(=O)NCc3n[nH]c(=O)[nH]3)c2c1,6.603%,-2.329%
CCN(C(C)c1cccc(O)c1)S(=O)(=O)c1cccnc1 (centres undefined),22.41%,26.51%
CCCNC(=O)c1cn(C(C)(C)C)c2ncccc12,-14.3%,52.59%
Cc1cc(C)c(C(=O)NCCNc2ncnc3ccccc23)c(=O)[nH]1,-,12.26%
CC(C)c1nc(O)c2nnn(C[C@H]3CCCN(Cc4cccs4)C3)c2n1,-9.577%,2.779%
O=C(NCCN1CCOCC1)c1ccc(-c2ccc(F)cc2)nc1O,15.66%,-4.216%
O=C(Cc1csc(-c2ccoc2)n1)NCCC(=O)N1CCCCC1,-18.79%,21.7%
CN(CC1CCOCC1)C1CCCN(c2ccccn2)C1 (centres undefined),1.253%,-11.7%
O=C(Nc1ccc2ncsc2c1)N1CCCN([C@H]2COC[C@@H]2O)CC1,10.93%,-21.57%
CN(C)CCNc1cc(-c2ncccn2)c2cc[nH]c2n1,-11.76%,-2.004%
Cn1cnc2c1CCN(CCCS(=O)(=O)c1ccccc1)C2,-21.8%,-21.29%
O=C(c1cnccn1)N1CCn2cnc(COCC3CC3)c2C1,-12.73%,-2.392%
CC(C)CN1CCC2(C=C(C(=O)N3CCCC3)c3ccccc32)CC1.O=C(O)C(F)(F)F,18.81%,1.965%
O=C(NCCC(=O)N1CCCC1)c1cccnc1,-6.383%,-11.89%
CN1CCN(Cc2ccncc2)C(=O)C12CCN(Cc1ccsc1)CC2.O=C(O)C(F)(F)F.O=C(O)C(F)(F)F.O=C(O)C(F)(F)F,8.132%,-16.46%
N#Cc1cccc(CN2C[C@@H](F)[C@@H](OCc3nc4cnccc4[nH]3)C2)c1,-36.29%,-22.93%
COc1c(CNCc2ccc(CN3CCOCC3)cc2)c(C)nn1C,-2.19%,-14.82%
[H][C@@]12COC[C@H](C(=O)NC3CC3)[C@]1([H])CN(c1ncc(F)cn1)C2,28.8%,-6.402%
CC(C)CCC(=O)NC(C#N)CC(C)C (centres undefined),-,16.07%
COCCNC(=O)CCC1CCN(Cc2cccc(SC)c2)CC1,-35.18%,-22.56%
O=c1[nH]nc2c(S(=O)(=O)N3CCCC3)cccn12,-15.83%,0.1512%
[H][C@@]12CCCO[C@]1([H])[C@H](NC(=O)CC1CC1)CN(Cc1ccoc1)C2,-13.9%,-3.487%
Cc1cc2c(=O)n3c(nc2s1)CCN(C(=O)c1ccnn1C(C)C)CC3,-42.21%,7.978%
CC(C(N)=O)S(=O)(=O)Cc1cc(Cl)c2c(c1)OCO2 (centres undefined),11.4%,-20.77%
CSc1ccccc1C(=O)NCc1cc2n(n1)CCCN(CC(C)C)C2,-22.95%,-17.6%
O=S1(=O)CCC(n2cc(CNCC3(c4ccccc4)CC3)cn2)C1 (centres undefined),-18.63%,-4.51%